Measurements reported in PubChem BioAssay AID652243 (Drosophila RNAi Screening Center, 2013).
The deposit covers about 24,000 reagents; this is a random part of those with a known target gene and a result. Over the whole deposit, 246 (1%) are marked active. 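Plates not normalised; calls are printed but the firefly/Renilla ratio behind them is not deposited; fold cut for lowering reported inconsistently.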 The raw values are shown without normalisation. Reagents against one gene are numbered here. Names joined by + are all predicted targets of the reagent. Not stated in the record: the amount of reagent.

- Aim: 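Fly genes required for human androgen receptor driven transcription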 (primary screen)
- Cell system: Drosophila S2R+ cells
- Knock-down reagent: long dsRNA against Drosophila genes
- Timing: 72 h (48 h, then 24 h hormone)
- Conditions: synthetic androgen R1881 at 10 nM for 24 h
- Measurement: 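Per-well raw luminescence of the androgen-driven firefly reporter and of the Renilla control, two replicates each, without normalisation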
- Direction: firefly reporter light: higher = more light from androgen-responsive reporter; Renilla control light: higher = more constitutive control signal (cell number, transfection)
- Active means: 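Across duplicate plates, a knock-down whose log firefly/Renilla ratio shifted a set fold down or up from the GFP/LacZ control mean was a hit; the downward cut appears as both 1.5 and 3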
- Calls: active = hit: reporter lowered or raised; inactive = no hit

| gene | reagent no. | firefly reporter light, replicate 1 | firefly reporter light, replicate 2 | Renilla control light, replicate 1 | Renilla control light, replicate 2 | Outcome |
| --- | --- | --- | --- | --- | --- | --- |
| ppk27 | 1 | 1.90e5 | 2.12e5 | 2.31e6 | 3.97e6 | inactive |
| ppk27 | 2 | 6.57e5 | 7.05e5 | 1.87e6 | 2.38e6 | inactive |
| Tsp42Ei | 1 | 3.85e5 | 4.08e5 | 2.59e6 | 2.50e6 | inactive |
| Tsp42Ei | 2 | 4.02e5 | 3.05e5 | 8.19e5 | 7.03e5 | inactive |
| CG1792 | 1 | 1.21e5 | 1.74e5 | 1.48e6 | 2.39e6 | inactive |
| CG1792 | 2 | 5.15e5 | 4.52e5 | 9.78e5 | 1.09e6 | inactive |
| CG11241 | 1 | 2.34e5 | 2.44e5 | 2.88e6 | 2.44e6 | inactive |
| CG11241 | 2 | 1.14e6 | 8.33e5 | 1.47e6 | 1.23e6 | inactive |
| Gnpat | 1 | 1.63e5 | 1.43e5 | 2.30e6 | 2.17e6 | inactive |
| sphinx1 | 1 | 1.20e5 | 1.15e5 | 1.20e6 | 9.77e5 | inactive |
| sphinx1 | 2 | 4.69e5 | 4.87e5 | 4.86e5 | 4.70e5 | inactive |
| CG8736 | 1 | 5.06e5 | 4.54e5 | 3.34e6 | 2.47e6 | inactive |
| CG8736 | 2 | 3.19e5 | 4.13e5 | 4.15e5 | 4.74e5 | inactive |
| Hmt-1 | 1 | 43124 | 64852 | 2.59e5 | 5.59e5 | inactive |
| CG10550 | 1 | 91813 | 1.07e5 | 6.99e5 | 7.14e5 | inactive |
| CG13589 | 1 | 3.92e5 | 4.24e5 | 2.21e6 | 2.39e6 | inactive |
| CG13589 | 2 | 3.05e5 | 4.41e5 | 7.56e5 | 1.03e6 | inactive |
| Rab3-GAP | 1 | 6.25e5 | 7.83e5 | 2.61e6 | 2.42e6 | inactive |
| Rab3-GAP | 2 | 5.47e5 | 4.78e5 | 1.05e6 | 1.19e6 | inactive |
| CG4734 | 1 | 2.90e5 | 2.98e5 | 1.74e6 | 2.26e6 | inactive |
| CG4734 | 2 | 6.58e5 | 5.85e5 | 2.60e5 | 2.09e5 | inactive |
| CG10376 | 1 | 9.62e5 | 1.16e6 | 8.66e5 | 1.05e6 | inactive |
| CG10376 | 2 | 6.20e5 | 5.47e5 | 8.18e5 | 7.23e5 | inactive |
| CG10376 | 3 | – | – | – | – | inactive |
| CG1575 | 1 | 53900 | 81009 | 2.30e5 | 3.51e5 | inactive |
| CG1575 | 2 | 4.86e5 | 3.24e5 | 4.54e5 | 4.17e5 | inactive |
| Ttc30 | 1 | 5.78e5 | 8.03e5 | 1.67e6 | 1.58e6 | inactive |
| Ttc30 | 2 | 2.62e5 | 2.88e5 | 8.29e5 | 7.41e5 | inactive |

Looked up above.
Result for sphinx1 #1 under “firefly reporter light, replicate 2”: 1.15e5
Rab3-GAP #1, Renilla control light, replicate 1: 2.61e6
Under “Outcome”, CG4734 #2 reads inactive
CG4734 #1, firefly reporter light, replicate 1: 2.90e5
Entry for CG8736 #1 in “firefly reporter light, replicate 1”: 5.06e5
Under “Renilla control light, replicate 2”, CG1792 #2 is entered as 1.09e6

Additional records follow:
| gene | reagent no. | firefly reporter light, replicate 1 | firefly reporter light, replicate 2 | Renilla control light, replicate 1 | Renilla control light, replicate 2 | Outcome |
| --- | --- | --- | --- | --- | --- | --- |
| smash | 1 | 40837 | 52370 | 3.88e5 | 3.64e5 | inactive |
| smash | 2 | 29039 | 39605 | 2.74e5 | 3.33e5 | inactive |
| smash | 3 | 48976 | 57769 | 1.38e6 | 1.55e6 | inactive |
| smash | 4 | 1.09e5 | 1.42e5 | 3.73e6 | 3.26e6 | inactive |
| smash | 5 | 3.35e5 | 2.23e5 | 4.91e5 | 6.06e5 | inactive |
| CG7322 | 1 | 1.39e5 | 1.45e5 | 5.79e5 | 2.34e5 | inactive |
| CG7322 | 2 | 4.36e5 | 3.80e5 | 5.98e5 | 6.61e5 | inactive |
| zen | 1 | 62711 | 1.19e5 | 1.83e6 | 1.47e6 | inactive |
| zen | 2 | 2.53e5 | 1.74e5 | 7.85e5 | 5.37e5 | inactive |
| CG4367 | 1 | 2.29e5 | 2.14e5 | 2.68e6 | 3.09e6 | inactive |
| corolla | 1 | 87647 | 1.16e5 | 8.30e5 | 8.85e5 | inactive |
| Mcm5 | 1 | 1.97e5 | 3.53e5 | 2.93e6 | 2.94e6 | inactive |
| Mcm5 | 2 | 8.97e5 | 7.56e5 | 1.14e6 | 1.14e6 | inactive |
| IFT20 + CG10395 | 1 | 7.88e5 | 7.50e5 | 9.29e5 | 7.11e5 | inactive |
| IFT20 + CG10395 | 2 | 3.87e5 | 2.72e5 | 1.05e6 | 9.92e5 | inactive |
| CG9641 | 1 | 8.08e5 | 6.83e5 | 3.61e6 | 2.39e6 | inactive |
| CG9641 | 2 | 3.23e5 | 3.30e5 | 7.55e5 | 6.03e5 | inactive |
| ClpX | 1 | 88022 | 51867 | 4.22e5 | 4.65e5 | inactive |
| CG6729 | 1 | 4.01e5 | 3.44e5 | 3.51e6 | 3.52e6 | inactive |
| CG6729 | 2 | 4.89e5 | 8.14e5 | 8.22e5 | 8.52e5 | inactive |
| CG6729 | 3 | 4.65e5 | 3.19e5 | 1.21e6 | 7.51e5 | inactive |
| CG18599 | 1 | 7.08e5 | 7.62e5 | 1.03e6 | 1.09e6 | inactive |
| CG18599 | 2 | 6.01e5 | 7.04e5 | 9.58e5 | 8.26e5 | inactive |
| CG18599 | 3 | 2.33e5 | 1.87e5 | 8.05e5 | 7.52e5 | inactive |
| CG9777 | 1 | 2.18e5 | 2.47e5 | 3.06e6 | 2.68e6 | inactive |
| Nha1 | 1 | 6.95e5 | 1.02e6 | 1.68e6 | 1.70e6 | inactive |
| CG3987 | 1 | 1.22e5 | 1.15e5 | 9.73e5 | 8.40e5 | inactive |
| CG32075 | 1 | 1.32e5 | 1.73e5 | 1.30e6 | 1.55e6 | inactive |
| CG32075 | 2 | 5.03e5 | 3.70e5 | 1.12e6 | 1.44e6 | inactive |
| CG42362 + CG42363 | 1 | 9.48e5 | 7.44e5 | 2.77e6 | 3.22e6 | inactive |
